# Measured values: US10245261B2, “Substituted indol-5-ol derivatives and their therapeutic applications” (NantBioScience, Inc., priority 2013, dated 2019)
# At least one structure is not confirmed: it was looked up by name or label, or the drawing left a doubt.
# What was measured:
# [1] = test system: NCI 60 cancer cell line panel; test: NCI-60 DTP Human Tumor Cell Line Panel, SRB growth inhibition; type: cell-based; settings: cell lines from the NCI 60 panel
# Method: The human tumor cell lines of the cancer screening panel are grown in RPMI 1640 medium containing 5% fetal bovine serum and 2 mM L-glutamine. For a typical screening experiment, cells are inoculated into 96 well microtiter plates in 100 μL at plating densities ranging from 5,000 to 40,000 cells/well depending on the doubling time of individual cell lines. After cell inoculation, the microtiter plates are incubated at 37° C., 5% CO2, 95% air and 100% relative humidity for 24 h prior to addition of experimental drugs.
# After 24 h, two plates of each cell line are fixed in situ with TCA, to represent a measurement of the cell population for each cell line at the time of drug addition (Tz). […]
# Following drug addition, the plates are incubated for an additional 48 h at 37° C., 5% CO2, 95% air, and 100% relative humidity. […] Bound stain is subsequently solubilized with 10 mM trizma base, and the absorbance is read on an automated plate reader at a wavelength of 515 nm. […] Using the seven absorbance measurements [time zero, (Tz), control growth, (C), and test growth in the presence of drug at the five concentration levels (Ti)], the percentage growth is calculated at each of the drug concentrations levels. Percentage growth inhibition is calculated as: [(Ti−Tz)/(C−Tz)]×100 for concentrations for which Ti>/=Tz [(Ti−Tz)/Tz]×100 for concentrations for which Ti<Tz. […]
# [2] = test system: human K562 chronic myelogenous leukemia (CML) xenograft; test: CML xenograft model in female SCID mice; type: in vivo, mouse
# Method: The objective of the second study was to evaluate antitumor activities of novel multiple-kinase inhibitor NTW-3475 in human K562 chronic myelogenous leukemia (CML) xenograft model in female SCID mice.
# Four to six animals were randomly assigned to study groups. Each animal was weighed, and then injected subcutaneously in the left and right flank area with 0.1 ml of 8.0×10^7 K562 cells per mL.
# Each test or control animal was on a 5-day on, two-day off for two cycles treatment schedule. Tumor growth was measured with a digital hand held caliper twice weekly (once tumor emerges) prior to the first dosing and then two to three times weekly until euthanized. Animals were weighed prior to tumor cell injection, prior to dosing, two to three times weekly with tumor growth measurements, and prior to euthanasia.
# This example illustrated antitumor activities of Compound 10 and 11 in human K562 chronic myelogenous leukemia (CML) xenograft model in female SCID mice.
# On the appropriate days, each animal in an appropriate group will receive a specific amount of test article either at 75 or 100 mg/kg, and the dosing volume is 10 ml/kg by oral gavage as indicated. Dosing schedule will be once daily for 10 days (qd×10, 5 days on and 2 days off for 2 cycles).
# [3] = test system: human MIAPaCa-2 pancreatic carcinoma xenograft; test: Pancreatic carcinoma xenograft in athymic nude mice; type: in vivo, mouse; settings: MIAPaCa-2 xenograft, single agent
# Method: The objective of the third study was to evaluate antitumor activities of novel multiple-kinase inhibitor NTW-3475 in human MIAPaCa-2 pancreatic carcinoma xenograft in athymic nude-Faxn1 mice.
# Four animals were randomly assigned to study groups. Each animal was weighed, and then injected subcutaneously in the left and right flank area with 0.1 ml of 5.0×10^7 MIAPaCa-2 cells per mL.
# Each test or control animal was on a 5-day on, two-day off for two cycles treatment schedule with negative control vehicle, positive control Abraxane at 20 mg/kg or 25, 50 mg/kg of NTW-3475. Tumor growth was measured with a digital hand held caliper twice weekly (once tumor emerges) prior to the first dosing and then two to three times weekly until euthanized.
# The objective of the third study was to evaluate antitumor activities of novel multiple-kinase inhibitor Compound 10, 11, 12, 53, 68, 82, 83, 88, and 90 in human MIAPaCa-2 pancreatic carcinoma xenograft in athymic nude-Faxn1 mice.
# Each test or control animal was on a 5-day on, two-day off for three cycles treatment schedule with negative control vehicle or 40 mg/kg of Compound 10, 11, 12, 53, 68, 82, 83, 88 and 90. Tumor growth was measured with a digital hand held caliper twice weekly (once tumor emerges) prior to the first dosing and then two to three times weekly until euthanized.
# [4] = test system: TT human Thyroid carcinoma xenograft; test: Thyroid carcinoma xenograft; type: in vivo, mouse
# Method: This example assesses Compound 10, 53 and 88's anti-tumor activity using a SCID mouse xenograft models for TT human Thyroid carcinoma xenograft (FIGS. 65 to 69.)
# On the appropriate days, each animal in an appropriate group will receive a specific amount of Compound 10 either at 50 or 100 mg/kg, and the dosing volume is 10 ml/kg by oral gavage as indicated. Dosing schedule will be once daily for 30 days.
# On the appropriate days, each animal in an appropriate group will receive a specific amount of Compound 53 either at 50 or 100 mg/kg, and the dosing volume is 10 ml/kg by oral gavage as indicated. Dosing schedule will be once daily for 30 days.
# Dosing schedule will be once daily for 30 days.
smiles,measurement,setting,value
C/C=C/c1cc(Nc2cc(N3CCN(C)CC3)nc(Oc3ccc4[nH]c(C)cc4c3F)n2)n[nH]1 [Compound 53],antiproliferative activity,[1],strong antiproliferative activity
same,anti-tumor effect,[2],anti-tumor effect
same,anti-tumor effect,[3],strong anti-tumor effect
same,anti-tumor effect,[4],Inhibits Tumor Growth
